Out of some 400,000 compounds screened, about 13,000 (3.2%) were called active. This list was built around the results that the source calls inconclusive (neither active nor inactive); the mix of calls is not that of the screen. Calls follow the shape of the dose curve; as a rule, active = well fitted cell-killing curve with a large enough effect; inconclusive = small, poorly fitted or top-dose-only effect, or effect the other way; inactive = flat fitted curve, though single readings scatter. A potency beside an inconclusive call is a rough fit, not a confirmed value.
assay: qHTS assay for MDR1-selective chemotherapeutics: Primary screen using the drug-selected MDR subline cells KB-V1; conditions: KB-V1 MDR cells viability, CellTiter-Glo, 72 h; activity change, negative = cytotoxicity: at 46.1 µM (top of the series); also: nearly all actives have a fitted effect of over 60% in size
In short: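 Readout: CellTiter-Glo luminescence, 10 min after addition. Cells: KB-V1 MDR subline, 72 h at 37 degrees C with compound. Analysis: corrected, normalized data fitted to concentration-effect curves.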
% is scaled to controls: 0 for no effect and ±100 for the full control effect; potency is read from the fitted curve at half-maximal effect.

With `Cc1oc(C)c2c(=O)cc(-c3ccc4c(c3)OCO4)cc(OC(=O)c3ccc(Cl)cc3)c12` as the molecule, how does the “activity change, negative = cytotoxicity” value read?
Its value is inactive: 17.3%.

For `CCN(CC(=O)NCc1ccc(F)cc1)C(=O)COc1ccc2ccccc2c1`, which Potency is on record?
Its Potency is active: 14.6 µM.

With `COc1ccc(C2C(C(=O)c3ccccc3)=C(C)Nc3nc4ccccc4n32)cc1OC` (centres undefined) as the molecule, how does the “activity change, negative = cytotoxicity” value read?
Its value is inactive: -0.591%.

With `Cc1ccc(CNC(=O)c2ccc3c(c2)N(Cc2cccc(C)c2)C(=O)CS3)cc1` as the molecule, how does the “activity change, negative = cytotoxicity” value read?
Its value is inactive: -9.89%.

For `Cc1ccccc1-n1c(SCC(=O)NCc2cccs2)nc2ccccc2c1=O`, which Potency is on record?
Its Potency is active: 5.8 µM.

For `CC(=O)NC(c1cc(Cl)c2cccnc2c1O)C(C)C` (centres undefined), which Potency is on record?
The Potency was inconclusive: 18.4 µM [cytotoxic, partial curve, poor fit].

For `Cc1c(C(=O)N2CCN(c3ccccn3)CC2)oc2ccccc12`, which Potency is on record?
Its Potency is inconclusive: 25.9 µM [cytotoxic, single point].

Which Potency does the source give for `O=C(CSc1nc2ccccc2n1-c1ccccc1)Nc1ncc(Cl)cc1Cl` here?
Its Potency is inconclusive: 4.11 µM [cytotoxic, full curve].

With `COc1ccccc1NC(=O)Nc1nc(CC(=O)N2CCN(c3ccc(F)cc3)CC2)cs1` as the molecule, how does the Potency read?
The Potency was inconclusive: 20.6 µM [cytotoxic, single point].

With `Cn1nc(-c2cccnc2)nc2c(=O)n(C)c(=O)nc1-2` as the molecule, how does the Potency read?
Its Potency is inconclusive: 29.1 µM [cytotoxic, single point].

Which Potency does the source give for `CC1(C)c2[nH]c3ccccc3c2C[C@@H]2C(=O)N(Cc3ccc(F)cc3)C(=O)N21` here?
The Potency was inconclusive: 10.3 µM [cytotoxic, partial curve, poor fit].

For `Cc1cc(Br)ccc1NC(=O)c1sc2ncnc(N3CCN(c4ccccn4)CC3)c2c1C`, which Potency is on record?
The Potency was inconclusive: 29.1 µM [cytotoxic, single point].

For `CCCN(CCO)Cc1cccc(Oc2ccccc2)c1`, which Potency is on record?
The Potency was inconclusive: 10.3 µM [cytotoxic, partial curve].

For `COc1ccc(-c2nc(-c3cccnc3)no2)cc1`, which Potency is on record?
The Potency was “inactive”.

Which Potency does the source give for `Cc1ccc(S(=O)(=O)Nc2cc3c4c(c2)CC(=O)N4CCC3)cc1` here?
Its Potency is inconclusive: 23.1 µM [cytotoxic, single point].

Which “activity change, negative = cytotoxicity” value does the source give for `CCN1CCN(c2nc(Nc3cccc(OC)c3)nc(N)c2[N+](=O)[O-])CC1` here?
Its value is inactive: 5.65%.

With `COc1ccccc1CCn1cnc2c3cc(C)ccc3n(C)c2c1=O` as the molecule, how does the Potency read?
Its Potency is inconclusive: 29.1 µM [cytotoxic, single point].

With `COC(=O)c1sc2ncccc2c1OCc1cccc(Cl)c1` as the molecule, how does the Potency read?
Its Potency is inconclusive: 29.1 µM [cytotoxic, single point].

For `COc1ccc(-c2csc(NC(=O)c3ccco3)n2)cc1`, which “activity change, negative = cytotoxicity” value is on record?
The value was inactive: -4.89%.

For `CCN(Cc1ccccc1)C(=O)CSc1nc(C)cc(C)c1C#N`, which Potency is on record?
Its Potency is inconclusive: 18.4 µM [cytotoxic, single point].

For `CN1CCN(C(=O)c2cccc(-c3cnc4cnc(-c5ccccc5Oc5ccccc5)cn34)c2)CC1`, which Potency is on record?
The Potency was active: 7.31 µM.

Which Potency does the source give for `CC(=O)Cc1nsc(NC(=O)c2ccc(-c3cc(Cl)ccc3Cl)o2)n1` here?
The Potency was inconclusive: 29.1 µM [cytotoxic, single point].

Which Potency does the source give for `NCCCC[C@H]1CNC(=O)C(=O)N1CCc1cccc2ccccc12` here?
The Potency was inconclusive: 29.1 µM [rising, single point].

Which Potency does the source give for `COc1cc(C(CC(=O)NCc2ccccc2Cl)N2Cc3ccccc3C2=O)cc(OC)c1OC` (centres undefined) here?
Its Potency is inconclusive: 0.517 µM [rising, full curve].

With `COc1cccc(C(=O)N2CCC2(C)C(=O)NC(C)C)c1` (centres undefined) as the molecule, how does the “activity change, negative = cytotoxicity” value read?
Its value is inactive: -10.5%.

For `OC(Cc1ccccc1Br)c1ncc(-c2ccc(Cl)cc2)[nH]1` (centres undefined), which Potency is on record?
The Potency was inconclusive: 29.1 µM [cytotoxic, single point].

For `Cn1c(SCC(=O)NNC(=O)Nc2ccccc2)nnc1-c1ccccc1`, which “activity change, negative = cytotoxicity” value is on record?
Its value is inactive: 2.49%.

Which “activity change, negative = cytotoxicity” value does the source give for `O=C(/C=C/c1cccs1)N1CCN(c2ccc(O)cc2)CC1` here?
The value was inactive: -14.6%.

For `CC(=O)Nc1ccc(NC(=O)[C@@H]2CCCC[C@@H]2C(=O)O)cc1`, which Potency is on record?
The Potency was inconclusive: 29.1 µM [rising, single point].

Which Potency does the source give for `O=S(Cc1ccccc1)CC(O)(c1ccc(Cl)cc1)c1ccc(Cl)cc1` (centres undefined) here?
Its Potency is active: 20.6 µM.

With `Cc1ccc(Cl)cc1N1CCN(c2nc3ccccc3c3nc(-c4cccnc4)nn23)CC1` as the molecule, how does the Potency read?
The Potency was inconclusive: 29.1 µM [rising, single point].

With `CC1CCN(C(=S)Nc2ccc(F)cc2)CC1` as the molecule, how does the Potency read?
The Potency was inconclusive: 0.731 µM [cytotoxic, full curve, poor fit].

With `CCOc1ccc(S(=O)(=O)Nc2cccc(C(=O)N3CCN(c4ccc(OC)cc4)CC3)c2)cc1` as the molecule, how does the “activity change, negative = cytotoxicity” value read?
Its value is inactive: -12.4%.

For `COc1ccc(N2CCN(C(=O)CN(CCc3ccccc3)S(C)(=O)=O)CC2)cc1`, which Potency is on record?
Its Potency is inconclusive: 23.1 µM [cytotoxic, single point].

Which “activity change, negative = cytotoxicity” value does the source give for `Cc1ccc(NC(=O)C(=O)NCC(c2cccnc2)N2CCN(Cc3ccccc3)CC2)cc1Cl` (centres undefined) here?
The value was inactive: -26.9%.

With `O=C(Cc1ccccc1F)Nc1nc(-c2ccc(F)cc2)cs1` as the molecule, how does the Potency read?
The Potency was inconclusive: 29.1 µM [cytotoxic, single point].

Which “activity change, negative = cytotoxicity” value does the source give for `CCn1c(C(=O)N2CCCC(C(=O)O)C2)cc2sccc21` (centres undefined) here?
Its value is inactive: 3.1%.

Which Potency does the source give for `CCN(C)C1CN(Cc2cn(Cc3cccc(C(F)(F)F)c3)nn2)S(=O)(=O)C1` (centres undefined) here?
The Potency was inconclusive: 29.1 µM [rising, single point].

Which Potency does the source give for `CCCc1cc(=O)oc2cc(OC(C)C(=O)NCCCn3ccnc3)ccc12` (centres undefined) here?
Its Potency is inconclusive: 20.6 µM [rising, single point].

Which Potency does the source give for `CCc1ccc(C(=O)CSc2nc3cc(S(=O)(=O)N4CCOCC4)ccc3n2CC)cc1` here?
The Potency was active: 20.6 µM.

Which Potency does the source give for `COCCN(Cc1cc2cc3c(cc2nc1Cl)OCO3)C(=O)Nc1ccc(OC)cc1` here?
Its Potency is inconclusive: 13 µM [cytotoxic, partial curve].

For `O=C(C1=C[C@@H](c2ccc(Br)cc2)C[C@@H](OCc2ccc(CO)cc2)O1)N1CCN(Cc2ccc3c(c2)OCO3)CC1`, which Potency is on record?
The Potency was inconclusive: 29.1 µM [cytotoxic, single point].

Which Potency does the source give for `O=C(N1CCCC1)C12CC3CC(CC(Cl)(C3)C1)C2` here?
The Potency was inconclusive: 3.66 µM [rising, full curve, poor fit].

With `O=C1CCc2cc(S(=O)(=O)NC(Cc3ccccc3)C(=O)NCCC3=CCCCC3)ccc2N1` (centres undefined) as the molecule, how does the Potency read?
Its Potency is inconclusive: 11.6 µM [rising, partial curve].

Which Potency does the source give for `COC(=O)c1c(-c2ccc(Cl)cc2)noc1N1CCN(c2ccc(C(C)=O)cc2)CC1` here?
The Potency was inconclusive: 13 µM [rising, partial curve].

With `CC(C)c1ccc(NC(=O)CCNS(=O)(=O)c2cc(Br)cnc2N)cc1` as the molecule, how does the Potency read?
Its Potency is inconclusive: 18.4 µM [cytotoxic, single point].

With `CC1N(O)C(c2ccc(Cl)cc2Cl)N(O)C1(C)C` (centres undefined) as the molecule, how does the Potency read?
Its Potency is inconclusive: 20.6 µM [rising, partial curve, poor fit].

With `CCCN(CC(=O)Nc1ccccc1OC)C(=O)CC1CCCC1` as the molecule, how does the “activity change, negative = cytotoxicity” value read?
The value was inactive: -10.4%.

For `Cc1ccc(NS(=O)(=O)c2cc(C(=O)NCc3cccnc3)ccc2C)cc1`, which Potency is on record?
The Potency was inconclusive: 14.6 µM [rising, partial curve, poor fit].

With `Cc1ccc(F)cc1NC(=O)CSc1nc(-c2cccs2)cc(C(F)(F)F)n1` as the molecule, how does the “activity change, negative = cytotoxicity” value read?
Its value is inactive: -0.234%.

With `Cc1c(C=O)c2cc(OCc3ccccc3)ccc2n1C` as the molecule, how does the activity change, negative = cytotoxicity read?
Its activity change, negative = cytotoxicity is inconclusive: 0.2%.

Which Potency does the source give for `COCCn1c(C)cc(C(=O)CSc2ccc3ccccc3n2)c1C` here?
The Potency was inconclusive: 18.4 µM [cytotoxic, single point].

With `c1ccc(CCc2nc(-c3ccncc3)no2)cc1` as the molecule, how does the “activity change, negative = cytotoxicity” value read?
The value was inactive: 3.7%.

Which “activity change, negative = cytotoxicity” value does the source give for `Cc1ccc(S(=O)(=O)NC(=O)C2(C)CCN2C(=O)CC2CCCC2)cc1` (centres undefined) here?
The value was inactive: 2.18%.

Which Potency does the source give for `CC(=O)c1ccc[n+](C(C)CCC(C)[n+]2cccc(C(C)=O)c2)c1` (centres undefined) here?
The Potency was inconclusive: 23.1 µM [rising, single point].

With `NS(=O)(=O)c1ccc(NC(=O)c2cc(=O)c3ccccc3o2)cc1` as the molecule, how does the Potency read?
The Potency was inconclusive: 3.66 µM [rising, partial curve, poor fit].

Which Potency does the source give for `O=C(NCCN1CCN(C(=O)c2cccs2)CC1)c1cccs1` here?
The Potency was inconclusive: 20.6 µM [cytotoxic, partial curve].

With `CCOC(=O)C1CCN(C(c2cc3ccc(C)cc3[nH]c2=O)c2nnnn2C2CCCCC2)CC1` (centres undefined) as the molecule, how does the Potency read?
The Potency was inconclusive: 10.3 µM [cytotoxic, partial curve, poor fit].

With `Cn1c(=O)c2c(-c3ccccc3)n(-c3cccc(Br)c3)cc2n(C)c1=O` as the molecule, how does the “activity change, negative = cytotoxicity” value read?
Its value is inactive: 0%.

Which Potency does the source give for `CC(/C=C/c1ccc2c(c1)OCO2)=N/NC(=O)c1ccc(C)nc1` here?
The Potency was inconclusive: 20.6 µM [cytotoxic, single point].

For `CN(C)c1ccc(NS(=O)(=O)c2ccc(Cl)cc2)cc1`, which “activity change, negative = cytotoxicity” value is on record?
The value was inactive: -23.6%.

Which Potency does the source give for `COC(=O)c1c(-c2ccc(F)cc2)csc1NC(=O)C1CCCO1` (centres undefined) here?
Its Potency is inconclusive: 16.4 µM [cytotoxic, single point].

Which Potency does the source give for `CCCCN1CC[C@H]2C=CC[C@@H](C(=O)NC3CCCCC3)[C@H]2C1=O` here?
Its Potency is inconclusive: 7.31 µM [cytotoxic, partial curve].

For `O=C1NC(Cc2ccccc2)c2nc3cc(F)ccc3c(=O)n2-c2cc3ccccc3cc21` (centres undefined), which Potency is on record?
The Potency was inconclusive: 18.4 µM [cytotoxic, single point].

Which Potency does the source give for `COc1ccc(NC(=O)c2oc3ccccc3c2NC(=O)c2cc3ccccc3o2)c(OC)c1` here?
The Potency was inconclusive: 29.1 µM [rising, single point].

With `Cc1ccc(NC(=O)CN2C(=O)CC(c3ccco3)Sc3ccccc32)cc1Cl` (centres undefined) as the molecule, how does the “activity change, negative = cytotoxicity” value read?
Its value is inactive: -30.5%.

With `CC(=O)c1cc(F)ccc1OCC(=O)N1CCCc2ccccc21` as the molecule, how does the Potency read?
Its Potency is inconclusive: 29.1 µM [cytotoxic, single point].

Which Potency does the source give for `COCCn1c(SCC(=O)c2c(N)n(C3CC3)c(=O)[nH]c2=O)nnc1-c1ccc(Cl)cc1` here?
The Potency was inconclusive: 0.411 µM [rising, full curve].

With `COc1ccc(C(CNC(=O)c2cccc(S(=O)(=O)N(C)c3ccccc3)c2)N2CCCC2)cc1` (centres undefined) as the molecule, how does the “activity change, negative = cytotoxicity” value read?
The value was inactive: -0.924%.

Source: PubChem BioAssay AID1347076 (National Center for Advancing Translational Sciences (NCATS), 2019)
